Assay [1] concerns the target mCherry-tagged calnexin lacking the luminal domain (CNX^BD) (mouse) (UniProt P35564). The experiment in a line: co-IP; tsA-201 cells 72 h after transfection, NP40 lysis buffer; precipitated with anti-mCherry (CNX-mCherry constructs), blotted with anti-HA.
Assay [2] addresses mCherry-tagged calnexin lacking the cytosolic domain (CNX^AC) (mouse) (UniProt P35564). Described as above.
For assay [3], the target named is HA-tagged human Cav3.2 channel (human) (UniProt O95180). The experiment in a line: co-IP; tsA-201 cells 72 h after transfection, NP40 lysis buffer (50 mM Tris, 150 mM NaCl, 1% NP40, pH 8.0); precipitated with anti-HA (hCav3.2-HA), blotted with anti-CNX or anti-mCherry.

Protein sequences, listed by entry. Tags and fused reporters are not part of them. Lines headed by an entry give the natural chain unless they say otherwise; changes in a name come on top.
UniProt P35564: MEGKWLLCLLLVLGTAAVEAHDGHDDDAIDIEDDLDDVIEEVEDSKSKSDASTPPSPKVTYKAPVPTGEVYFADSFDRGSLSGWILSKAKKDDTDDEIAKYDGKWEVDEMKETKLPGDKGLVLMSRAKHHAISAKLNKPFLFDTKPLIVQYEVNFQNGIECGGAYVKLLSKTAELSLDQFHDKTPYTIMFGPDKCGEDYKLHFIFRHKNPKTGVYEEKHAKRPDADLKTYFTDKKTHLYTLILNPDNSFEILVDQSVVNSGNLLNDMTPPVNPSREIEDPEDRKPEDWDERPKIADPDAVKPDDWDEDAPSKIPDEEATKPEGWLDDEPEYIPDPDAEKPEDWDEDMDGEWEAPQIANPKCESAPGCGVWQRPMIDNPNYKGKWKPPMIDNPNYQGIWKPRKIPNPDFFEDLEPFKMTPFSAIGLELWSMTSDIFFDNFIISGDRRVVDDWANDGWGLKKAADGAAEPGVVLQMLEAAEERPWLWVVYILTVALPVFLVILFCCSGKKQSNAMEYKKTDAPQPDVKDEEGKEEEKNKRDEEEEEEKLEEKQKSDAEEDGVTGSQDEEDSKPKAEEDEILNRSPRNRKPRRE
UniProt O95180: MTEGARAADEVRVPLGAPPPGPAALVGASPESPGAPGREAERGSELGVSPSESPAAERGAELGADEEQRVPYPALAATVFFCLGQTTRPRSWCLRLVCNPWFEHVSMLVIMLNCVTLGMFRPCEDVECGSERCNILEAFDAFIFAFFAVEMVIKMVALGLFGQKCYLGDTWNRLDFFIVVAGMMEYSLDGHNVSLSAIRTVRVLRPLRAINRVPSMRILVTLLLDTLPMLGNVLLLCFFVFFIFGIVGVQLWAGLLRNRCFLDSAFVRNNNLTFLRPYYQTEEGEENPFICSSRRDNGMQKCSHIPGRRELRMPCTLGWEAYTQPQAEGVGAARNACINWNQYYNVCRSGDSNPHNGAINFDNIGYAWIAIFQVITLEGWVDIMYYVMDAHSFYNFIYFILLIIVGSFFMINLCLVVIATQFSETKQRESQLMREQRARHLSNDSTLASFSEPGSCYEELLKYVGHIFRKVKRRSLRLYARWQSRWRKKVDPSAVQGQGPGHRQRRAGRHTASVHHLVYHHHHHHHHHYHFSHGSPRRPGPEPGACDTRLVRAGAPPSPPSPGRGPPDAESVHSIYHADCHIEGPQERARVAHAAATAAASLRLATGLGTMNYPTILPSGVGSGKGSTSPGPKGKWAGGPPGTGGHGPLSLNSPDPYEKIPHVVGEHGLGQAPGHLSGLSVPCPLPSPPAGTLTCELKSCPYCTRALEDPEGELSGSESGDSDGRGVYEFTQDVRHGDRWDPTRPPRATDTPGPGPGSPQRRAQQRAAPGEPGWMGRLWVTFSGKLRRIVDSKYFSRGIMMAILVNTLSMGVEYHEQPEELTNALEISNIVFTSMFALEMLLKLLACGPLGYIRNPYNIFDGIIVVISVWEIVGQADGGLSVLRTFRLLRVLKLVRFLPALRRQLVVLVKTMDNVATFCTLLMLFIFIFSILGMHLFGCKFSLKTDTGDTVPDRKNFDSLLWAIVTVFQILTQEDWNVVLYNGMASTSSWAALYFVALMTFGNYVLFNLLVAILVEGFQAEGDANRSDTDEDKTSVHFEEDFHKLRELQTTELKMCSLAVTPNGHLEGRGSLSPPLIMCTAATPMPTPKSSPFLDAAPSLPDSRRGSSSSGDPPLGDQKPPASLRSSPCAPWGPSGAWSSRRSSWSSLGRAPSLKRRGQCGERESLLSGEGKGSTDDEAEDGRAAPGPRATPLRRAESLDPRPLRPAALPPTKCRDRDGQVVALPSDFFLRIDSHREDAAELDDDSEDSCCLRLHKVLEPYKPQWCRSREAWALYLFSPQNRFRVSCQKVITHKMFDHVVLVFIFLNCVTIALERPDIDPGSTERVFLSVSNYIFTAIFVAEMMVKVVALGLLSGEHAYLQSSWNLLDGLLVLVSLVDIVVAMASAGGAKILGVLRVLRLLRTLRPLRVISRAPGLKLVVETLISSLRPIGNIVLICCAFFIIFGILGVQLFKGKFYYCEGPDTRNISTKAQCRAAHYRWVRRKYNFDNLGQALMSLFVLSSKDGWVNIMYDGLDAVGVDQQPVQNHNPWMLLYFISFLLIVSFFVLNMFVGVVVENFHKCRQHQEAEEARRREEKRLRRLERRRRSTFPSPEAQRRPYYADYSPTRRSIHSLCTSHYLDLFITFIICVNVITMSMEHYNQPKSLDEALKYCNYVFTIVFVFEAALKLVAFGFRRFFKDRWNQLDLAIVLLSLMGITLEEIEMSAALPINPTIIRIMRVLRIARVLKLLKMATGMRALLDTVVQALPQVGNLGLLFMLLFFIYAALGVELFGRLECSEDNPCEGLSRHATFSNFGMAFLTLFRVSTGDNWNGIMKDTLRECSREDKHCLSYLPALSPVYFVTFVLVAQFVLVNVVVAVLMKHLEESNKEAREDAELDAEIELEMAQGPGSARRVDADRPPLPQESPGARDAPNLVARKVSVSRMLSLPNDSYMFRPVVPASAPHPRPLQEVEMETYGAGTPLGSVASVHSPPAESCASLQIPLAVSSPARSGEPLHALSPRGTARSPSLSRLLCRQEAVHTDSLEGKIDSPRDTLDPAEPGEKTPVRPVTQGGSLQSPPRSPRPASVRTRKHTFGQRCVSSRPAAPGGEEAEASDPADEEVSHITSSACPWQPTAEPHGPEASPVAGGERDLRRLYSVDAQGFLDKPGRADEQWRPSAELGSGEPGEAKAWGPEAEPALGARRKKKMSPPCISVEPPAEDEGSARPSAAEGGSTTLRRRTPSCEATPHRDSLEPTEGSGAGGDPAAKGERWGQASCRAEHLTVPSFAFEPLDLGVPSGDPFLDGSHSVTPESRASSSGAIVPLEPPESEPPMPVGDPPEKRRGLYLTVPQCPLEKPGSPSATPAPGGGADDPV

These are yes or no findings as the source states them, for the method shown. In cells and extracts the contact can be indirect. Binding calls can cover weak binding; strength is not graded here.

Take “HA-tagged human Cav3.2 channel (from UniProt O95180 1-2353)”: the binding result in assay [1] and in assay [2] was “binds” throughout. With “mCherry-tagged calnexin lacking the cytosolic domain (CNX^AC) (from UniProt P35564) (domain or fragment)”, the binding entry in assay [3] is “binds”.

Consider “mCherry-tagged calnexin lacking the luminal domain (CNX^BD) (from UniProt P35564) (domain or fragment)”, for which the binding result in assay [3] was “binds”.

The record behind these values is article PMC5599688.
